PubChem BioAssay AID1259308, NCATS | 2017
Test: 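Candidate targets for better recombinant protein yield in mammalian cells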 (primary screen). System: human HEK293 embryonic kidney cells stably expressing firefly luciferase (HEK-CMV-Luc2-Hygro). Knock-down reagent: single siRNA against human genes, 0.8 pmol siRNA per well. Timing: 72 h. Measured: 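Luciferase light (ONE-Glo) measured on one replicate plate set and viability (CellTiter-Glo) on the other, scaled to a negative control siRNA, with robust z-scores and luciferase per cell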. Scale: total luciferase, z-score and total luciferase, % of control: higher = more reporter protein produced. Rule for the call: 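Active when the median/MAD z-score for overall luciferase is greater than 3; a gene was taken forward for validation with new siRNAs if at least two of its three siRNAs passed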. Calls: active = raised luciferase; inactive = no rise.
In all, the deposit lists about 59,000 reagents; this is a random part of them. In the full data, about 1,510 (2.6%) are marked active. 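Calls use total luciferase alone and ignore viability, so some active siRNAs may act by altering cell number.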 A number with no mark means an inactive call. The numbers tell different reagents against one gene apart. Further read-outs or replicates are left out here.

For ILDR2 #1, the values are total luciferase, z-score -1.26; total luciferase, % of control 56.9. After knock-down of ILDR2 #2, the record shows total luciferase, z-score -0.0019; total luciferase, % of control 81.8. Silencing of ILDR2 #3 resulted in: total luciferase, z-score 1.28; total luciferase, % of control 107. For MOBP #1, the values are total luciferase, z-score 2.46; total luciferase, % of control 131. After knock-down of MOBP #2, the screen gave total luciferase, z-score 0.095; total luciferase, % of control 83.8. Silencing of MOBP #3 resulted in: total luciferase, z-score 1.18; total luciferase, % of control 105.

Silencing of GPR65 #1 resulted in: total luciferase, z-score 0.545; total luciferase, % of control 92.7. Silencing of GPR65 #2 resulted in: total luciferase, z-score -1.13; total luciferase, % of control 59.4. Depletion of GPR65 #3 resulted in: total luciferase, z-score -1.15; total luciferase, % of control 59. Against HEATR5B #1, the entry reads total luciferase, z-score -0.438; total luciferase, % of control 73.2. After knock-down of HEATR5B #2, the screen gave total luciferase, z-score 0.213; total luciferase, % of control 86.1. With knock-down of HEATR5B #3, the screen gave total luciferase, z-score 0.0544; total luciferase, % of control 83.

Silencing of DLG2 #1 gave: total luciferase, z-score 0.4; total luciferase, % of control 89.9. DLG2 #2 gave total luciferase, z-score -0.686; total luciferase, % of control 68.3. After knock-down of DLG2 #3, the screen gave total luciferase, z-score -2.14; total luciferase, % of control 39.3. Silencing of ABCG8 #1 gave: total luciferase, z-score -1.82; total luciferase, % of control 45.7. ABCG8 #2 showed total luciferase, z-score 1.42; total luciferase, % of control 110. Depletion of ABCG8 #3 resulted in: total luciferase, z-score -1.35; total luciferase, % of control 55.1.

For SLC25A41 #1 the deposit lists total luciferase, z-score -0.97; total luciferase, % of control 62.6. SLC25A41 #2 scored total luciferase, z-score 0.394; total luciferase, % of control 89.7. SLC25A41 #3 scored total luciferase, z-score 3.56 (active); total luciferase, % of control 153.
